From PMC4859800
No constants are given. Whether binding was seen depends on the method and setting.

How the values were obtained:
Experiment in all cases: two-hybrid; array-based Y2H matrix; preys in pACT2 (PJ69-4a) mated against 23 baits in pAS2-1 (PJ69-4α); growth on SD-Leu-Trp-His + 6 mM 3-AT greater than the negative control after 2 weeks
[1] = molecular target: T1, Drs1 (Y2H bait, pAS2-1) (S. cerevisiae) (UniProt P32892)
T1 sequence: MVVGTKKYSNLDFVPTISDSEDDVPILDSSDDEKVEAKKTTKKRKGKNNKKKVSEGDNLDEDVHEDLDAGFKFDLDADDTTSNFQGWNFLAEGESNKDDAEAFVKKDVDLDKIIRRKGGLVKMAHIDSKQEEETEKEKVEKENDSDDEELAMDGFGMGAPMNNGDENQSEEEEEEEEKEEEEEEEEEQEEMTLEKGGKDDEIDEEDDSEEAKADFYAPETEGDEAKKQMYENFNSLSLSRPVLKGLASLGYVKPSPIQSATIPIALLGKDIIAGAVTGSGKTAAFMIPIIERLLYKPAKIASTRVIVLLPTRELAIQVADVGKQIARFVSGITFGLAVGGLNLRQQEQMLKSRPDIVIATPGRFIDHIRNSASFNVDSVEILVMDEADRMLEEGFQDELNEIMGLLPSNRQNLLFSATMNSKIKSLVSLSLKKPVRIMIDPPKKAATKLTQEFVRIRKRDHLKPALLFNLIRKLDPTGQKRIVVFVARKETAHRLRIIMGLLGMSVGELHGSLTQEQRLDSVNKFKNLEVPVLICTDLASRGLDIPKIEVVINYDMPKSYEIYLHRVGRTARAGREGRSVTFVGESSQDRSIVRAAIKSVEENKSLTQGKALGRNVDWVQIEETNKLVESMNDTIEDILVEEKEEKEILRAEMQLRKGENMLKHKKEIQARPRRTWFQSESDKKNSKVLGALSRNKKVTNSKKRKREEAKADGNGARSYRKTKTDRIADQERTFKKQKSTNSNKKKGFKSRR

[2] = molecular target: T2, Spb4 (Y2H bait, pAS2-1) (S. cerevisiae) (UniProt P25808)
T2 sequence: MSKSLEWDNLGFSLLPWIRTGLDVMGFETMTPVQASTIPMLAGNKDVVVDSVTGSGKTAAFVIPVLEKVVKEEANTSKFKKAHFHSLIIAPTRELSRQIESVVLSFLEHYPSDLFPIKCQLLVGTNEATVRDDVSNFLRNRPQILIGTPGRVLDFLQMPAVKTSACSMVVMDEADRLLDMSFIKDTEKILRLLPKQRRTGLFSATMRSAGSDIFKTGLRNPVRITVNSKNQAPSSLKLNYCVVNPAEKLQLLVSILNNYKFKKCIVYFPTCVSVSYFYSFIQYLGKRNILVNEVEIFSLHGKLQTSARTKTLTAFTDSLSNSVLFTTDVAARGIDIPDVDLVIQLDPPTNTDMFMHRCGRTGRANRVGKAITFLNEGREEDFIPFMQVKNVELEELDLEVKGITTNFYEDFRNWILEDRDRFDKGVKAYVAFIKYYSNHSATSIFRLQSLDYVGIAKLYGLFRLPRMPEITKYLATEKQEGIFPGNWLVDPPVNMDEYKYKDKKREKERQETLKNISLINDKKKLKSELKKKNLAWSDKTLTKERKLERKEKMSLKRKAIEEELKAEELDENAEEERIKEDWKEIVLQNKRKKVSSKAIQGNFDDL

[3] = molecular target: T3, Nop4 (Y2H bait, pAS2-1) (S. cerevisiae) (UniProt P37838)
T3 sequence: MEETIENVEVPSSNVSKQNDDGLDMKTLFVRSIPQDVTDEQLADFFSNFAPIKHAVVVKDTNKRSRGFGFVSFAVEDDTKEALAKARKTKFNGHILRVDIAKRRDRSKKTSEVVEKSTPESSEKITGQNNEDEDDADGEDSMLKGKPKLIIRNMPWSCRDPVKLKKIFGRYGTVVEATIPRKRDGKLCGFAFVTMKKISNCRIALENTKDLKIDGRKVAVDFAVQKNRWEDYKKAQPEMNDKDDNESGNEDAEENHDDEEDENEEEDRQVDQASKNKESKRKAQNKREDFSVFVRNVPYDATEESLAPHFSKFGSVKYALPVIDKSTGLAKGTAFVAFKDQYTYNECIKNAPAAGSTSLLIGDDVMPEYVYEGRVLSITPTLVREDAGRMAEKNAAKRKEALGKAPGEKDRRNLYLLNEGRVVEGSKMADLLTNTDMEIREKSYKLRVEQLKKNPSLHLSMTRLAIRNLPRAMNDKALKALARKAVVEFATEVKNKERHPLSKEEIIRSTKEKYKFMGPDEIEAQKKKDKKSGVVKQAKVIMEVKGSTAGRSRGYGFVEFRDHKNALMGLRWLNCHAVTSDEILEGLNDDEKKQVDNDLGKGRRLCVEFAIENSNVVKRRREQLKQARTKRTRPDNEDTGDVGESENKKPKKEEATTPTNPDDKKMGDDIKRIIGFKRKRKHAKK

Measured: binding

B1: Nop4 RRM 1–2 (Y2H prey, pACT2) (domain or fragment, UniProt P37838 1-250)
chain: MEETIENVEVPSSNVSKQNDDGLDMKTLFVRSIPQDVTDEQLADFFSNFAPIKHAVVVKDTNKRSRGFGFVSFAVEDDTKEALAKARKTKFNGHILRVDIAKRRDRSKKTSEVVEKSTPESSEKITGQNNEDEDDADGEDSMLKGKPKLIIRNMPWSCRDPVKLKKIFGRYGTVVEATIPRKRDGKLCGFAFVTMKKISNCRIALENTKDLKIDGRKVAVDFAVQKNRWEDYKKAQPEMNDKDDNESGNE
no binding: all assays above
